Reference: PubChem BioAssay (NCATS)
Inconclusive results, whose numbers are uncertain, are shown with a selection of clear calls. For part of these data: A potency beside an inconclusive call is a rough fit, not a confirmed value. Activity calls are given as the source filed them. Calls follow the shape of the dose curve; as a rule, active = well fitted curve in the direction sought with a large enough effect; inconclusive = small, poorly fitted or top-dose-only effect, or another doubt; inactive = no such curve, though single readings can be large; an effect the other way counts as inactive or inconclusive.

Key:
[1] = Quantitative High-Throughput drug screen in 47 multiple myeloma cell lines against the NCATS MIPE library collection: JIM1_ECACC cell viability assay (AID 1918964); settings: JIM1 myeloma viability, CellTiter-Glo ATP luminescence, 48 h; viability (% of DMSO): at 45.8 µM (top of the series)
Method in brief: (§1)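 qHTS of the MIPE 4.0 collection: 500 myeloma cells/well, 48 h drug exposure at 37C in 5% CO2, then CellTiter-Glo for 5 min at room temperature before luminescence reading.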

[2] = Quantitative High-Throughput drug screen in 47 multiple myeloma cell lines against the NCATS MIPE library collection: INA6_PLB cell viability assay (AID 1918965; also: nearly all actives have a fitted effect of over 55% in size); settings: INA6 myeloma viability, CellTiter-Glo ATP luminescence, 48 h; viability (% of control): at 45.8 µM (top of the series)
Method in brief: (§2)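 Relative luminescence from CellTiter-Glo served as the viability signal, referenced to DMSO-treated (100%) and cell-free medium (0%) controls. Treatment lasted 48 hours at 37C with 500 cells per well.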

[3] = Quantitative High-Throughput drug screen in 47 multiple myeloma cell lines against the NCATS MIPE library collection: JJN3_DSMZ cell viability assay (AID 1918966; also: nearly all actives have a fitted effect of over 50% in size); settings: JJN3 myeloma cells viability, CellTiter-Glo ATP, 48 h; series mostly up to 45.8 µM
Method in brief: as §1

[4] = Quantitative High-Throughput drug screen in 47 multiple myeloma cell lines against the NCATS MIPE library collection: KMS12BM_JCRB cell viability assay (AID 1918971); settings: KMS12BM myeloma viability, CellTiter-Glo ATP, 48 h; series mostly up to 45.8 µM; also: nearly all actives have a fitted effect of over 35% in size
Method in brief: (§3)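 Inhibition of cell viability is measured here. Each line was plated at 500 cells per well, treated with MIPE 4.0 drugs, kept 48 hours at 37C, then assayed for ATP content by CellTiter-Glo luminescence.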

[5] = Quantitative High-Throughput drug screen in 47 multiple myeloma cell lines against the NCATS MIPE library collection: KMS12PE_JCRB cell viability assay (AID 1918972); settings: KMS12PE myeloma viability, CellTiter-Glo ATP, 48 h; viability: at 45.8 µM (top of the series); also: nearly all actives have a fitted effect of over 30% in size
Method in brief: as §2

[6] = Quantitative High-Throughput drug screen in 47 multiple myeloma cell lines against the NCATS MIPE library collection: KMS20_JCRB cell viability assay (AID 1918973); settings: CellTiter-Glo ATP, 48 h; viability (% of DMSO): at 45.8 µM (top of the series); also: nearly all actives have a fitted effect of over 45% in size
Method in brief: as §1

[7] = Quantitative High-Throughput drug screen in 47 multiple myeloma cell lines against the NCATS MIPE library collection: KMS21BM_JCRB cell viability assay (AID 1918974); settings: ATP luminescence, 48 h; viability: at 45.8 µM (top of the series) unless noted
Method in brief: as §1

[8] = Quantitative High-Throughput drug screen in 47 multiple myeloma cell lines against the NCATS MIPE library collection: MOLP8_DSMZ cell viability assay (AID 1918977); settings: MOLP8 myeloma viability, CellTiter-Glo ATP luminescence, 48 h; viability (% of control): at 45.8 µM (top of the series); also: nearly all actives have a fitted effect of over 45% in size
Method in brief: (§4)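 Readout: median RLU from CellTiter-Glo after 5 min at room temperature. Preceding step was 48 h drug treatment of 500 cells/well at 37 °C, 5% CO2, with DMSO-only and media-only control wells.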

[9] = Quantitative High-Throughput drug screen in 47 multiple myeloma cell lines against the NCATS MIPE library collection: NCIH929_DSMZ cell viability assay (AID 1918978); settings: NCI-H929 myeloma viability, CellTiter-Glo ATP, 48 h; series mostly up to 45.8 µM; also: nearly all actives have a fitted effect of over 35% in size
Method in brief: as §4

[10] = Quantitative High-Throughput drug screen in 47 multiple myeloma cell lines against the NCATS MIPE library collection: MM1S_ATCC cell viability assay (AID 1918980); settings: MM1S myeloma viability, CellTiter-Glo ATP luminescence, 48 h; series mostly up to 45.8 µM; also: nearly all actives have a fitted effect of over 45% in size
Method in brief: as §4

[11] = Quantitative High-Throughput drug screen in 47 multiple myeloma cell lines against the NCATS MIPE library collection: MM1R_ATCC cell viability assay (AID 1918981); settings: MM1R multiple myeloma cells, CellTiter-Glo viability, 48 h; series mostly up to 45.8 µM; also: nearly all actives have a fitted effect of over 35% in size
Method in brief: as §4

[12] = Quantitative High-Throughput drug screen in 47 multiple myeloma cell lines against the NCATS MIPE library collection: LP1_DSMZ cell viability assay (AID 1918982); settings: LP1 myeloma viability, CellTiter-Glo ATP luminescence, 48 h; series mostly up to 45.8 µM; also: nearly all actives have a fitted effect of over 35% in size
Method in brief: as §4

[13] = Quantitative High-Throughput drug screen in 47 multiple myeloma cell lines against the NCATS MIPE library collection: H1112_PLB cell viability assay (AID 1918967; also: nearly all actives have a fitted effect of over 30% in size); settings: H1112 myeloma cells viability, ATP luminescence, 48 h; viability: at 45.8 µM (top of the series)
Method in brief: as §1

[14] = Quantitative High-Throughput drug screen in 47 multiple myeloma cell lines against the NCATS MIPE library collection: KMS27_JCRB cell viability assay (AID 1918970); settings: KMS27 myeloma cells, CellTiter-Glo ATP viability, 48 h; viability (% of DMSO): at 45.8 µM (top of the series); also: nearly all actives have a fitted effect of over 30% in size
Method in brief: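 CellTiter-Glo luminescence after 48 h drug exposure at 37 °C; 500 cells/well, 1536-well format, pin-tool compound addition; DMSO = 100%, media-only = 0% viability.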

[15] = Quantitative High-Throughput drug screen in 47 multiple myeloma cell lines against the NCATS MIPE library collection: KMS26_JCRB cell viability assay (AID 1918975); settings: KMS26 myeloma cells viability, CellTiter-Glo ATP, 48 h; viability (% of DMSO): at 45.8 µM (top of the series); also: nearly all actives have a fitted effect of over 45% in size
Method in brief: as §3

[16] = Quantitative High-Throughput drug screen in 47 multiple myeloma cell lines against the NCATS MIPE library collection: MMM1_PLB cell viability assay (AID 1918976); settings: MMM1 myeloma cells viability, CellTiter-Glo, 48 h; series mostly up to 45.8 µM; also: nearly all actives have a fitted effect of over 35% in size
Method in brief: as §4

[17] = Quantitative High-Throughput drug screen in 47 multiple myeloma cell lines against the NCATS MIPE library collection: OCIMY1_PLB cell viability assay (AID 1918979); settings: OCI-MY1 myeloma viability, CellTiter-Glo ATP, 48 h; series mostly up to 45.8 µM; also: nearly all actives have a fitted effect of over 35% in size
Method in brief: as §4

[18] = Quantitative High-Throughput drug screen in 47 multiple myeloma cell lines against the NCATS MIPE library collection: KMS28PE_JCRB cell viability assay (AID 1918983); settings: KMS28PE multiple myeloma viability, CellTiter-Glo ATP, 48 h; series mostly up to 45.8 µM; also: nearly all actives have a fitted effect of over 35% in size
Method in brief: as §4

[19] = Quantitative High-Throughput drug screen in 47 multiple myeloma cell lines against the NCATS MIPE library collection: Karpas25_ECACC cell viability assay (AID 1918968; also: nearly all actives have a fitted effect of over 35% in size); settings: Karpas25 myeloma viability, CellTiter-Glo ATP, 48 h; viability (% of control): at 45.8 µM (top of the series)
Method in brief: as §1
Potency is read from the fitted curve at half-maximal effect.

| Compound | Potency [1] | Potency [2] | Potency [3] | Potency [4] | Potency [5] | Potency [6] | Potency [7] | Potency [8] | Potency [9] | Potency [10] | Potency [11] | Potency [12] | Potency [13] | Potency [14] | Potency [15] | Potency [16] | Potency [17] | Potency [18] | Potency [19] |
| --- | --- | --- | --- | --- | --- | --- | --- | --- | --- | --- | --- | --- | --- | --- | --- | --- | --- | --- | --- |
| CCOC(=O)C(C)(C)Oc1ccc(Cl)cc1 | inconclusive: 4.18 µM [cytotoxic, partial curve, poor fit] | inactive | inactive | inconclusive: 3.72 µM [cytotoxic, full curve, poor fit] | inactive | inactive | inconclusive: 37.2 µM [rising, partial curve] | inactive | inactive | inconclusive: 20.9 µM [cytotoxic, partial curve] | inconclusive: 20.9 µM [cytotoxic, single point] | inactive |  |  |  |  |  |  |  |
| C=C[C@@H]1CN2CCC1C[C@@H]2C(O)c1ccnc2ccc(OC)cc12 (some centres not stated) | inactive | inconclusive: 29.6 µM [cytotoxic, single point] |  | inconclusive: 18.7 µM [cytotoxic, partial curve, poor fit] |  | inconclusive: 23.5 µM [cytotoxic, partial curve, poor fit] | inconclusive: 8.33 µM [rising, full curve] | inconclusive: 23.5 µM [cytotoxic, partial curve, poor fit] |  | inconclusive: 18.7 µM [cytotoxic, partial curve, poor fit] | active: 18.7 µM |  | inactive | inactive | inconclusive: 2.96 µM [cytotoxic, full curve, poor fit] | active: 11.8 µM |  |  |  |
| O=C(O)C1=CC(O)C(O)[C@H](O)C1 (some centres not stated) | inconclusive: 0.0066 µM [cytotoxic, full curve, poor fit] | inactive | inconclusive: 0.0332 µM [cytotoxic, full curve, poor fit] | inactive |  | inconclusive: 0.0662 µM [rising, full curve, poor fit] | inconclusive: 8.33 µM [rising, partial curve, poor fit] | inconclusive: 11.8 µM [cytotoxic, partial curve, poor fit] | inconclusive: 0.0019 µM [rising, full curve, poor fit] | inactive | inactive | inactive |  |  | inconclusive: 16.6 µM [cytotoxic, partial curve, poor fit] | inconclusive: 5.26 µM [cytotoxic, partial curve, poor fit] | inactive |  |  |
| CC(C)C[C@H](CC(=O)O)C(=O)N[C@@H](Cc1c[nH]c2ccccc12)C(=O)N[C@@H](C)c1ccccc1 | inconclusive: 0.662 µM [rising, full curve, poor fit] | inconclusive: 11.8 µM [cytotoxic, partial curve, poor fit] | inactive | inconclusive: 0.0033 µM [rising, full curve, poor fit] |  |  | inconclusive: 11.8 µM [rising, partial curve] | inconclusive: 0.0015 µM [rising, full curve, poor fit] | inactive |  | inconclusive: 10.5 µM [cytotoxic, partial curve, poor fit] |  |  | inconclusive: 1.87 µM [cytotoxic, full curve] | inactive | inconclusive: 0.0059 µM [rising, full curve] | inconclusive: 0.0066 µM [rising, full curve, poor fit] | inconclusive: 26.4 µM [rising, partial curve, poor fit] |  |
| CCCCCCCCCCCCCCCC(=O)OC[C@@H](NC(=O)C(Cl)Cl)[C@H](O)c1ccc([N+](=O)[O-])cc1 | inactive | inconclusive: 0.187 µM [rising, full curve] | inconclusive: 0.0469 µM [rising, full curve, poor fit] | inactive |  | inactive |  | inactive |  | inconclusive: 0.0047 µM [rising, full curve, poor fit] | inconclusive: 0.0026 µM [rising, full curve, poor fit] |  |  |  | inactive | inconclusive: 0.0026 µM [rising, full curve, poor fit] | inconclusive: 0.0526 µM [rising, full curve, poor fit] | inactive |  |
| Cc1ccccc1-n1c(Cn2nc(-c3cccc(O)c3)c3c(N)ncnc32)nc2cccc(C)c2c1=O | active: 1.18 µM | active: 1.05 µM | inconclusive: 11.8 µM [cytotoxic, full curve, poor fit] |  |  |  |  | active: 5.9 µM |  |  |  | active: 11.8 µM |  |  |  |  | inconclusive: 13.2 µM [cytotoxic, partial curve, poor fit] |  |  |
| Cc1cnc(C(=O)NCCc2ccc(S(=O)(=O)NC(=O)NC3CCCCC3)cc2)cn1 | inconclusive: 37.2 µM [cytotoxic, single point] | inconclusive: 13.2 µM [cytotoxic, partial curve, poor fit] |  |  | active: 14.8 µM | inconclusive: 0.372 µM [rising, full curve, poor fit] | inconclusive: 10.5 µM [rising, partial curve] | inactive |  | inconclusive: 33.2 µM [cytotoxic, single point] | inconclusive: 33.2 µM [cytotoxic, single point] |  | inconclusive: 14.8 µM [cytotoxic, partial curve, poor fit] | inactive | inconclusive: 29.6 µM [cytotoxic, single point] | inconclusive: 0.0053 µM [rising, full curve, poor fit] |  | inconclusive: 23.5 µM [cytotoxic, single point] | inconclusive: 16.6 µM [cytotoxic, partial curve] |
| COc1c(N2CCNC(C)C2)c(F)cc2c(=O)c(C(=O)O)cn(C3CC3)c12 (configuration not stated) | inconclusive: 0.0019 µM [cytotoxic, full curve, poor fit] | inconclusive: 4.18 µM [rising, partial curve, poor fit] |  | inconclusive: 26.4 µM [cytotoxic, partial curve, poor fit] | inactive | inconclusive: 0.0059 µM [rising, full curve, poor fit] | inconclusive: 18.7 µM [cytotoxic, partial curve, poor fit] | inactive | inconclusive: 10.5 µM [rising, partial curve, poor fit] | inactive | inconclusive: 0.0059 µM [rising, full curve, poor fit] | inactive | inactive |  | inconclusive: 0.0019 µM [rising, full curve, poor fit] |  |  | inactive |  |
| Cc1c(O)cccc1C(=O)N[C@@H](CSc1ccccc1)[C@H](O)CN1C[C@H]2CCCC[C@@H]2C[C@@H]1C(=O)NC(C)(C)C | active: 9.35 µM | active: 23.5 µM | active: 18.7 µM | active: 20.9 µM |  | inconclusive: 33.2 µM [cytotoxic, single point] | inconclusive: 23.5 µM [cytotoxic, partial curve, poor fit] | active: 16.6 µM | active: 23.5 µM |  |  |  |  |  | active: 29.6 µM | active: 20.9 µM | active: 20.9 µM |  |  |
| COc1cc([C@H]2Oc3cc([C@H]4Oc5cc(O)cc(O)c5C(=O)[C@H]4O)ccc3O[C@H]2CO)ccc1O | inactive | active: 13.2 µM |  |  |  | inconclusive: 9.35 µM [cytotoxic, partial curve, poor fit] | inconclusive: 7.43 µM [rising, partial curve, poor fit] | inconclusive: 59 µM [cytotoxic, partial curve, poor fit] | active: 23.5 µM |  | active: 23.5 µM | inconclusive: 33.2 µM [cytotoxic, partial curve, poor fit] | inconclusive: 26.4 µM [cytotoxic, single point] |  |  |  | active: 20.9 µM |  | inconclusive: 5.26 µM [cytotoxic, full curve] |
| N[C@@H](Cc1cc(I)c(Oc2cc(I)c(O)c(I)c2)c(I)c1)C(=O)O | active: 0.0053 µM | inconclusive: 0.001 µM | inactive | inconclusive: 20.9 µM [cytotoxic, partial curve, poor fit] |  | inconclusive: 0.264 µM [cytotoxic, full curve, poor fit] | inconclusive: 2.64 µM [cytotoxic, partial curve, poor fit] | inconclusive: 14.8 µM [cytotoxic, partial curve, poor fit] | inactive | inactive |  | inconclusive: 9.35 µM [cytotoxic, full curve, poor fit] |  | inconclusive: 8.33 µM [cytotoxic, full curve, poor fit] |  | active: 2.96 µM | inactive |  |  |

Taken from above.
For Potency [2], `COc1cc([C@H]2Oc3cc([C@H]4Oc5cc(O)cc(O)c5C(=O)[C@H]4O)ccc3O[C@H]2CO)ccc1O` reads active: 13.2 µM
For Potency [8], `N[C@@H](Cc1cc(I)c(Oc2cc(I)c(O)c(I)c2)c(I)c1)C(=O)O` reads inconclusive: 14.8 µM [cytotoxic, partial curve, poor fit]
